Experiment [1] addresses T1, Tea2p kinesin (Schizosaccharomyces pombe) (UniProt Q1MTQ1).
T1 sequence: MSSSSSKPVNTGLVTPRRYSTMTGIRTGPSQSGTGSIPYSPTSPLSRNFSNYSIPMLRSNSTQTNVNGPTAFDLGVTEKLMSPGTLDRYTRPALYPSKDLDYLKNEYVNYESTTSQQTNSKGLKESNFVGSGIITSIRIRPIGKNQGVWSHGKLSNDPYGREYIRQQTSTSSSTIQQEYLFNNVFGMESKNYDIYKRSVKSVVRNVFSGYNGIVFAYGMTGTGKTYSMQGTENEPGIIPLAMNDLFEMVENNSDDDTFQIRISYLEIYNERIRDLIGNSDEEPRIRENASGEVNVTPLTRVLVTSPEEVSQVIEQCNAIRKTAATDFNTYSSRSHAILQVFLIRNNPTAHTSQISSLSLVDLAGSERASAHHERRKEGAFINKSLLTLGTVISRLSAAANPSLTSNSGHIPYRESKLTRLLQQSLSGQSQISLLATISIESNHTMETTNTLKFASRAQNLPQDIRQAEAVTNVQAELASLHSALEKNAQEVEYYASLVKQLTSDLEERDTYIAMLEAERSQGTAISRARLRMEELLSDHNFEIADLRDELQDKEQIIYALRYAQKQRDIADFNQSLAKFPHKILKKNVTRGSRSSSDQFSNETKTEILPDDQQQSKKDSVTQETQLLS
Briefly: RIp-chip (immunoprecipitation of the tagged bait, co-purified mRNAs read on DNA microarrays); bait immunoprecipitated from S. pombe extracts (antibody against protein A for TAP tags, 9E11 for myc tags); the partner protein is inferred from its mRNA; compared: +ATG and untranslatable -ATG constructs, cells with 1 mM puromycin (32°C, 15 minutes), extracts with EDTA.

By UniProt entry, the sequences of proteins in these tests, tags left out.
UniProt P04551: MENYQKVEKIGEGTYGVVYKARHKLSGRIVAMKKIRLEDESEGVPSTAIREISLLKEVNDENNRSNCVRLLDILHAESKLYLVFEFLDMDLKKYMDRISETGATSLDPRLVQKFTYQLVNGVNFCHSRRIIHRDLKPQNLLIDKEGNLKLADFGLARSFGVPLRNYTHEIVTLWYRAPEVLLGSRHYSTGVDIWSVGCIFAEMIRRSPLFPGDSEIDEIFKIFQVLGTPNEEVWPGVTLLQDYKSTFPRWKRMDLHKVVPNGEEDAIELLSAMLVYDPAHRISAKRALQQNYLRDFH

In experiment [2] the target is Cdc2p cyclin-dependent kinase (Schizosaccharomyces pombe) (UniProt P04551). The experiment is described as above.

No constants are given. Whether binding was seen depends on the method and setting. Some binding calls cover weakened binding; strength is not graded here. For some assays here: Where a sequence is shown, tags or fusion partners need not be part of it.

B1: Tip1p, protein of the CLIP-170 family (nascent peptide on the polysome) (protein, UniProt P79065 1-461)
chain: MFPLGSVVEVITGERGFVRYAGEVENRKGVYVGLELLPEFAEFGKNRGVVDGREYFKTKNNEKTGIFVPFDKCKLASSISSSPSPKIDGTAASIGMGFPPMSPNLQSSIPRLTNVSSSSNLSMNTISSTALTPTEKILQKRIEDLLYERQNHQQQLEEVLATVDQLQSLVTNFNDQQDEVDELRERITLKEERIQQMRNEASQRRFEFKTTIECLEESSNRAIETYENRIAELEAQLEMYMSGKSEDDLLFSLQQERDYALNQVEILQERVDTLMKQKANSSTANEKLSHMESSSPTLTNASFESPKRGKGSNDLPENHPQRRQTLEFYEIEIEVLREKVEKLQALSDEKDFYISKLEKSLDRNDTTPVPSDEKLSNYAAEKENLVSRISELEHTIEQLTINNERDNERMSPAEFELETTQEVEENDSDSHDDEETWCEVCETNNHSLQECPTVFGSTDEA
Take B1: the binding result in experiment [1] is listed as “binds”.

B2: Rum1p, CDK inhibitor (nascent peptide on the polysome) (protein, UniProt P40380 1-230)
chain: MEPSTPPMRGLCTPSTPESPGSFKGVIDASLEGNSSIMIDEIPESDLPAPQVSTFPPTPAKTPKKQLLPNLMLQDRSNSLERCMEEDREHNPFLSSSDNQLLSRKKRKPTPPPSDGLYYVFRGKRIKKSFRPGTDLSTFKPKLLFADSAPSSSSDNPTSSVDLNDYSQIGILPPNLNSIGNKMFSLKSRVPSSSSGSFVAPPPQMRLPAYSSPQKSRSNTKDENRHNLLR
As to B2, in experiment [2], the binding result is reported as “binds”.
